Experimental data: the supplement of paper PMC10849652
This is one part of the list.

Sequences of proteins named here, by UniProt entry; tags and fusion partners are left off. A change or cut given only in a name is not applied to a line headed by its entry.
UniProt Q9Y219: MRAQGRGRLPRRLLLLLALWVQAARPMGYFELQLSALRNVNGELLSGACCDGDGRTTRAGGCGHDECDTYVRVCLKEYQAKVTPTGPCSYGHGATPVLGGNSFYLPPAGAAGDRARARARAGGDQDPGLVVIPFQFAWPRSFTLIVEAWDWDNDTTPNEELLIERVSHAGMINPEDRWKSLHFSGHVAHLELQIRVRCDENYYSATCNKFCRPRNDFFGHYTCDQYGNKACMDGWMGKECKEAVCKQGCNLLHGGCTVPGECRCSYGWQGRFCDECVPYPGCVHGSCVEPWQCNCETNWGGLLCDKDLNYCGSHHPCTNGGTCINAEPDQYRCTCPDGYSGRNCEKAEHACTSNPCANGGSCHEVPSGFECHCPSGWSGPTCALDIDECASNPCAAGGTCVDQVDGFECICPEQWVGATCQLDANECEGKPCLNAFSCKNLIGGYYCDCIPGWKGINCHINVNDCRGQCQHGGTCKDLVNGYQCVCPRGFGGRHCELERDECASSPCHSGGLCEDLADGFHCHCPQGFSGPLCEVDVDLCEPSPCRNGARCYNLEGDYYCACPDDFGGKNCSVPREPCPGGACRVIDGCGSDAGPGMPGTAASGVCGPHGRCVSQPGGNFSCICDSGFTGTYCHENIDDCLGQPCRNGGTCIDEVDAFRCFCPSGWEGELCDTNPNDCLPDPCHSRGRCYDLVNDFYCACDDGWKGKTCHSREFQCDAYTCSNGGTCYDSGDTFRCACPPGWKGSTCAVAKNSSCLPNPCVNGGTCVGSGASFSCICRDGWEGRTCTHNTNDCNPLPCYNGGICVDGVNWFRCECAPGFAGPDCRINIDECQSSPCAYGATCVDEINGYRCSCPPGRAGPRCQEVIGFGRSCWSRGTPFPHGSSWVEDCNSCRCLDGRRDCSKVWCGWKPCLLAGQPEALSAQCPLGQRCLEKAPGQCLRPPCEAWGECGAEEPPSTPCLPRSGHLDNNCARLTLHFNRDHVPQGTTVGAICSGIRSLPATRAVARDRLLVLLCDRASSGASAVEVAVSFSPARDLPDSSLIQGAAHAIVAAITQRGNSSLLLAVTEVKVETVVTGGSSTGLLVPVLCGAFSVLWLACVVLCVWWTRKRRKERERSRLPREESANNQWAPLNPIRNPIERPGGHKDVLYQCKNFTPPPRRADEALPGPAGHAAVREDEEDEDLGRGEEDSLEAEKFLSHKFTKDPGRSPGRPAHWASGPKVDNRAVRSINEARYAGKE
UniProt Q8IVT5: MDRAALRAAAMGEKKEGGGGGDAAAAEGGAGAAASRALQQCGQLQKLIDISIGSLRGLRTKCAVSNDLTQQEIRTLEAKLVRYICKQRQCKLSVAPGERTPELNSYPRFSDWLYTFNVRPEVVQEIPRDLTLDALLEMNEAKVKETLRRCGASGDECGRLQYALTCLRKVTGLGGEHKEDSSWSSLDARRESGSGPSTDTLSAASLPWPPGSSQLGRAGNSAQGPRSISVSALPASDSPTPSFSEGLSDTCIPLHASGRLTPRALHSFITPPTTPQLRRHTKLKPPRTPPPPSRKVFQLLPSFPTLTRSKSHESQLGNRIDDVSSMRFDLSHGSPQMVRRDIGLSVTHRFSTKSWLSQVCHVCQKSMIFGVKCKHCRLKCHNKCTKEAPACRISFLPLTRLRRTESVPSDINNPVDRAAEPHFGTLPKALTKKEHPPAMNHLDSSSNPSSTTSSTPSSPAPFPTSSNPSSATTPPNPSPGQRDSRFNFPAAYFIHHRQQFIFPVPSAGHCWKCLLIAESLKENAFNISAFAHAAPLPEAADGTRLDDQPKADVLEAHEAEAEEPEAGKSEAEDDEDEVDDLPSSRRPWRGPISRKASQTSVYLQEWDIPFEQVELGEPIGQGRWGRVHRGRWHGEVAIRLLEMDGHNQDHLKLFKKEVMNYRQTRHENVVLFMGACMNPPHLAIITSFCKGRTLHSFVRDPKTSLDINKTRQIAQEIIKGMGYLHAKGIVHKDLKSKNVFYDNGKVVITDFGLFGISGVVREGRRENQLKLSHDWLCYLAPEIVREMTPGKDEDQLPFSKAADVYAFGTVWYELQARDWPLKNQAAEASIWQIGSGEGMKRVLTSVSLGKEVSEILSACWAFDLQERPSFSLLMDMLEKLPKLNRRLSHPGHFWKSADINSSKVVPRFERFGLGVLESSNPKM
UniProt O76095: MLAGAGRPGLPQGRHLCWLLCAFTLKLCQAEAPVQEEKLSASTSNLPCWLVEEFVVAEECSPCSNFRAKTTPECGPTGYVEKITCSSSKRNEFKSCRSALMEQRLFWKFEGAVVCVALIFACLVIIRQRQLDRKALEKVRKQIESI
UniProt P33947: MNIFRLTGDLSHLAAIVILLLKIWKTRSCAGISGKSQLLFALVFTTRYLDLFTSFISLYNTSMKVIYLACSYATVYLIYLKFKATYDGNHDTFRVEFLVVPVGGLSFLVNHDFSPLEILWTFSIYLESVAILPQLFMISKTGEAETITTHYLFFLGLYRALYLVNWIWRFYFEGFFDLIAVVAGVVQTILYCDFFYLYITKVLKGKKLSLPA
UniProt Q9Y597: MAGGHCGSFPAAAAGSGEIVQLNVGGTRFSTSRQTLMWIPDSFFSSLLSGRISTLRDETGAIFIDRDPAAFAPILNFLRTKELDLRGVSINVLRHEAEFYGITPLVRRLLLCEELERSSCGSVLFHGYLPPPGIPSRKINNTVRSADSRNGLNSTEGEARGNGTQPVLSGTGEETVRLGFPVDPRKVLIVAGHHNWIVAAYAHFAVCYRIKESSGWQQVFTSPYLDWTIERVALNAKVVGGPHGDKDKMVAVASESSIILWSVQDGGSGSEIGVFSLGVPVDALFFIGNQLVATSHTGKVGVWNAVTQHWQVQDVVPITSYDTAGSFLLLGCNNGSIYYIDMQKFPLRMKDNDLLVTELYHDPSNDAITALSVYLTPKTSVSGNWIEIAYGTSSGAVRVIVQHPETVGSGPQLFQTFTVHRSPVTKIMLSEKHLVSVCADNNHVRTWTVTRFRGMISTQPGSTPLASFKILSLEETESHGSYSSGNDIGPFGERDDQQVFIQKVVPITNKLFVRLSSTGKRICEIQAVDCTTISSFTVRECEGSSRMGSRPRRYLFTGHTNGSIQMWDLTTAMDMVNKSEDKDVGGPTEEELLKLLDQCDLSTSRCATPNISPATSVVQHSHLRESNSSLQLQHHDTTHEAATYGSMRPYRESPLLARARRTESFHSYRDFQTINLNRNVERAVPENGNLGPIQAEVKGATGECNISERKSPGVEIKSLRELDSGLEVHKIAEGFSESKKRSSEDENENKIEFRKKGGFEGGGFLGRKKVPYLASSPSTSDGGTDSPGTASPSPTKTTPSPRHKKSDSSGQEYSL
UniProt P17535: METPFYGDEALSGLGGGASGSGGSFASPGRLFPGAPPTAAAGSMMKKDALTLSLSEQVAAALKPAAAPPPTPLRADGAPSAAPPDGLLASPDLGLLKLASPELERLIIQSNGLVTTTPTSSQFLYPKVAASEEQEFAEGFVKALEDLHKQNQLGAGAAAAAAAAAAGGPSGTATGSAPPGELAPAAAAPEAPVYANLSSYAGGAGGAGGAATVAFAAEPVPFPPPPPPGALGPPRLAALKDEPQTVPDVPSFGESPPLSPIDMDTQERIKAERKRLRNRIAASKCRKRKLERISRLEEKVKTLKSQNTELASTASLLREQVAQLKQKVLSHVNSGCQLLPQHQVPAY
UniProt Q9Y496, whole entry, looked up: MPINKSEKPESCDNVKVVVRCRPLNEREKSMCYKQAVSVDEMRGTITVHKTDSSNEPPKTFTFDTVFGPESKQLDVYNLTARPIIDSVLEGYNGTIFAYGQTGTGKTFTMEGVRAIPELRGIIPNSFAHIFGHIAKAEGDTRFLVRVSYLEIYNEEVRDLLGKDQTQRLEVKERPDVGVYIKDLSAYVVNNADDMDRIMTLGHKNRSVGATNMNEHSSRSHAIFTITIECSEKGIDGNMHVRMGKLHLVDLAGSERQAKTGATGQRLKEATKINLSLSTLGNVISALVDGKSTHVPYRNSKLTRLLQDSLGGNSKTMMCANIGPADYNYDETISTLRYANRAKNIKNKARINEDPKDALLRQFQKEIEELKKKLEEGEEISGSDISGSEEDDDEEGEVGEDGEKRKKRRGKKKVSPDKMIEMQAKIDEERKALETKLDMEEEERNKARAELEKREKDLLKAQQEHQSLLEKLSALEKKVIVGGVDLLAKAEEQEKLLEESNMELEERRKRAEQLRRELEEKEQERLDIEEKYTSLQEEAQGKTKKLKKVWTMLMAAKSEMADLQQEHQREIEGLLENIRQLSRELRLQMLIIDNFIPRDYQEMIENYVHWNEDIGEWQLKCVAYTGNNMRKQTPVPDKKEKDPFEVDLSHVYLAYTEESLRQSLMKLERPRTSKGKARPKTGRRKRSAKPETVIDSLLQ
UniProt O00629, whole entry, looked up: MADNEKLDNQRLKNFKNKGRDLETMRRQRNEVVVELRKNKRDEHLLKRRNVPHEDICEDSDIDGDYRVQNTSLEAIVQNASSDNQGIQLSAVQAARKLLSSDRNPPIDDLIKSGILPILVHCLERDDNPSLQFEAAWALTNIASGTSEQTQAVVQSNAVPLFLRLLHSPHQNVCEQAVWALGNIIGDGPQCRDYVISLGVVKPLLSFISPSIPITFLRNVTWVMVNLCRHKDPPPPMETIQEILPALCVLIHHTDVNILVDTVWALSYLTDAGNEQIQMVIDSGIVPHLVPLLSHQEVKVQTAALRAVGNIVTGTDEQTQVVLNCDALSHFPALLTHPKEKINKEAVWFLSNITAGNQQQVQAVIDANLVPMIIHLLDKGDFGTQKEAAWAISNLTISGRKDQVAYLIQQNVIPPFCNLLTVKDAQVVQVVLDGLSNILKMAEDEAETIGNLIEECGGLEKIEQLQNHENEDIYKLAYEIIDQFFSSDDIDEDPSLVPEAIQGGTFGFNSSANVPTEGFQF
UniProt Q9P206: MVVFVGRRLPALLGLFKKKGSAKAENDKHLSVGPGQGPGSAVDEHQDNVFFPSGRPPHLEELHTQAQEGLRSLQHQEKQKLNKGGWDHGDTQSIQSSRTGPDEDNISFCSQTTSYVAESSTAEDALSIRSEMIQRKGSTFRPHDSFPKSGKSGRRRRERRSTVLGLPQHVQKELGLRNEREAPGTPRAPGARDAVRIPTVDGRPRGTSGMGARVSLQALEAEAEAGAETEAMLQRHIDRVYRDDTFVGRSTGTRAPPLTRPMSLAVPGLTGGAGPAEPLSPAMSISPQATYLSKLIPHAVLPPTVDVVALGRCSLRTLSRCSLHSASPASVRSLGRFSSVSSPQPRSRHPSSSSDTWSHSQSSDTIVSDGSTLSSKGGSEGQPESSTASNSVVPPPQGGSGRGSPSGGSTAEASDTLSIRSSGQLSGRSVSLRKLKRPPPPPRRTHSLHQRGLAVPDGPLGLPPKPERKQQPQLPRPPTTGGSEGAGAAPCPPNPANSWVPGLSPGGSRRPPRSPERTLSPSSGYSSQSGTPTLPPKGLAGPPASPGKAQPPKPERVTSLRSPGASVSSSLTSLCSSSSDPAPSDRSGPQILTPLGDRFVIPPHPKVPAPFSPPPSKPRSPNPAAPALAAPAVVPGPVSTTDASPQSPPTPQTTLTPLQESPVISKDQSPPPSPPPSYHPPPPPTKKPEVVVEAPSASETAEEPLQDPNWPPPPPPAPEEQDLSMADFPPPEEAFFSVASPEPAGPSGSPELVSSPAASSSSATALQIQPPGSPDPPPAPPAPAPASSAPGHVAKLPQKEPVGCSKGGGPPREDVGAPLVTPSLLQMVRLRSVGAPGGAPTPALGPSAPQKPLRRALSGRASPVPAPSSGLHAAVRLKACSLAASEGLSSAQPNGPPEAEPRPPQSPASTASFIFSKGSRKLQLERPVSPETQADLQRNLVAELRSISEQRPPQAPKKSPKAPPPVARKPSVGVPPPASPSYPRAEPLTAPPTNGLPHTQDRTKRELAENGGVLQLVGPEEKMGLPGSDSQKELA
UniProt P52294, whole entry, looked up: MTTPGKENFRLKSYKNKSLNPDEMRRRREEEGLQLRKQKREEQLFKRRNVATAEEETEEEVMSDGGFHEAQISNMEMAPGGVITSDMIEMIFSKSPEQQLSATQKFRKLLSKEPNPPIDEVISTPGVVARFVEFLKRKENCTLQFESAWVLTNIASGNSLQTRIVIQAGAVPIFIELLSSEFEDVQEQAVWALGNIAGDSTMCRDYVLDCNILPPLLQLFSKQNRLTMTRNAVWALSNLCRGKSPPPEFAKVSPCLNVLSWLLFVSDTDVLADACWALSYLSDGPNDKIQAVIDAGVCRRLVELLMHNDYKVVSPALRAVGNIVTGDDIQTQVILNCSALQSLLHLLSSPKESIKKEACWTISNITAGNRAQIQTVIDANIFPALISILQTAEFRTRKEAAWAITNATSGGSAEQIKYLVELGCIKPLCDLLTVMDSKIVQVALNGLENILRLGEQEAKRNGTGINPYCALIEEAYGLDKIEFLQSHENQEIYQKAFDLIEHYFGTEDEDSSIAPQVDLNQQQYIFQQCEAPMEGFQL

How the values were obtained:
Assay in all cases: log2 fold change, soluble protein after heating vs DMSO (PISA); higher = thermal stabilisation; K562 cells, 10 uM, 30 min; active = over 0.2 and 3.5 SD of the protein, either way, in both replicates (recomputed)
[1] = compound: C1=CC=C(C=C1)[C@H](COC2=CC3=C(C=C2)NC(=O)N3)NC(=O)C4=CC=CN(C4=O)CC5=CC(=C(C=C5)F)F
Method in brief: (§1)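 Soluble protein was defined as the supernatant after 21,000xg for 90 min. It came from K562 cells at 2×10^6 cells/mL given 10 μM compound for 30 min, heated in aliquots for 3 min across 48°C-58°C, pooled, and extracted in PBS with 0.5% NP-40 at 4°C, and was quantified by TMTpro 16plex LC-MS/MS with equalised channel sums. Thermal stability against control samples, from duplicates, is reported as log2 fold change.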

[2] = compound: CC1=C(SC2=C1C(=N[C@H](C3=NN=C(N32)C)CC(=O)N)C4=CC=C(C=C4)Cl)C
Method in brief: as §1

[3] = compound: CC1=C2C(=CC=C1)N=C(N(C2=O)C3=CC=CC=C3C)CN4C=NC5=C(N=CN=C54)N
Method in brief: as §1

[4] = compound: Cc1sc2c(c1C)C(c1ccc(Cl)cc1)=N[C@@H](CC(=O)OC(C)(C)C)c1nnc(C)n1-2
Method in brief: as §1

[5] = compound: c1ccc([C@@H]2C[C@H]2NC2CCNCC2)cc1
Method in brief: as §1

Measured: log2 fold change

KIDINS220 (UniProt Q9ULH0)
inactive: [1] -0.001 | [2] 0.024 | [3] 0.041 | [4] 0.001 | [5] 0

JAG2 (UniProt Q9Y219)
inactive: [1] 0.031 | [2] 0.056 | [3] 0.013 | [4] 0.064 | [5] -0.081

KLC4 isoform 3 (UniProt Q9NSK0)
inactive: [1] -0.052 | [2] -0.032 | [3] -0.03 | [4] 0.027 | [5] 0.018

KIAA1324L (UniProt A8MWY0)
inactive: [1] 0.041 | [2] 0.044 | [3] 0 | [4] -0.001 | [5] 0.035

KCTD15 (UniProt Q96SI1)
inactive: [1] -0.035 | [2] 0.007 | [3] 0.056 | [4] 0.015 | [5] 0

KMT2C isoform 3 (UniProt Q8NEZ4)
inactive: [1] 0.032 | [2] 0.04 | [3] 0.017 | [4] -0.076 | [5] -0.001

KHK isoform 2 (UniProt P50053)
inactive: [1] -0.061 | [2] 0.002 | [3] 0.045 | [4] -0.04 | [5] 0.01

KPNA2 (UniProt P52292)
inactive: [1] -0.015 | [2] -0.21 | [3] -0.124 | [4] 0.167 | [5] 0.028

KIF3B (UniProt O15066)
inactive: [1] -0.068 | [2] -0.014 | [3] 0.028 | [4] 0.09 | [5] -0.054

KRAS isoform 2 (UniProt P01116)
inactive: [1] -0.002 | [2] -0.065 | [3] 0.096 | [4] 0.005 | [5] 0.053

KLHDC8B (UniProt Q8IXV7)
inactive: [1] 0.236 | [2] -0.058 | [3] 0.093 | [4] 0.056 | [5] -0.111

IVNS1ABP (UniProt Q9Y6Y0)
inactive: [1] -0.104 | [2] 0.096 | [3] 0.09 | [4] 0.123 | [5] -0.042

KSR1 (UniProt Q8IVT5)
inactive: [1] -0.044 | [2] 0.033 | [3] 0.137 | [4] 0.044 | [5] 0.018

JMJD6 isoform 3 (UniProt Q6NYC1)
inactive: [1] -0.004 | [2] 0.046 | [3] 0.055 | [4] 0.006 | [5] 0.097

KHSRP (UniProt Q92945)
inactive: [1] 0.008 | [2] 0.026 | [3] 0.005 | [4] -0.002 | [5] 0

KDM8 isoform 3 (UniProt Q8N371)
inactive: [1] -0.006 | [2] 0.134 | [3] 0.074 | [4] -0.098 | [5] -0.004

IWS1 (UniProt Q96ST2)
inactive: [1] -0.01 | [2] 0.08 | [3] 0.037 | [4] 0.045 | [5] -0.035

KRIT1 (UniProt O00522)
inactive: [1] -0.586 | [2] 0.027 | [3] 0.162 | [5] -0.239

KLC2 (UniProt Q9H0B6)
inactive: [1] -0.046 | [2] 0.085 | [3] 0.118 | [4] 0.032 | [5] 0

KIF21A isoform 4 (UniProt Q7Z4S6)
inactive: [1] -0.003 | [2] -0.024 | [3] 0.061 | [4] -0.077 | [5] 0.014

KCTD9 (UniProt Q7L273)
inactive: [1] -0.011 | [2] 0.028 | [3] -0.027 | [4] -0.071 | [5] -0.03

KIAA0754 (UniProt O94854)
inactive: [1] 0.136 | [2] 0.158 | [4] 0.068 | [5] -0.165

KCNN4 (UniProt O15554)
inactive: [1] 0.237 | [2] 0.16 | [3] -0.102 | [4] 0.061 | [5] -0.216

KNOP1 (UniProt Q1ED39)
inactive: [1] 0.142 | [2] 0.013 | [3] 0.043 | [4] 0.228 | [5] -0.068

KDSR (UniProt Q06136)
inactive: [1] -0.014 | [2] 0.021 | [3] 0.017 | [4] -0.042 | [5] 0.029

JPT2 isoform 3 (UniProt Q9H910)
inactive: [1] -0.017 | [2] 0.031 | [3] 0.008 | [4] 0.025 | [5] 0.041

KIF14 (UniProt Q15058)
inactive: [1] 0.216 | [2] -0.502 | [3] 0.117 | [5] -0.101

JTB (UniProt O76095)
inactive: [1] 0.01 | [2] 0.061 | [3] -0.098 | [4] 0.057 | [5] 0.036

KLHL7 (UniProt Q8IXQ5)
inactive: [1] 0.137 | [2] 0.081 | [3] 0.099 | [5] -0.039

KHDRBS1 (UniProt Q07666)
inactive: [1] -0.038 | [2] -0.018 | [3] -0.025 | [4] 0.055 | [5] -0.021

KDELR2 (UniProt P33947)
inactive: [1] -0.038 | [2] -0.015 | [3] 0.076 | [4] -0.137 | [5] 0.115

KCTD3 (UniProt Q9Y597)
inactive: [1] 0.031 | [2] -0.052 | [3] 0.019 | [4] 0.091 | [5] 0.064

Random excerpt: 2 records from the list.
KHDRBS1 (UniProt Q07666)
inactive: [1] -0.038 | [2] -0.018 | [3] -0.025 | [4] 0.055 | [5] -0.021

JTB (UniProt O76095)
inactive: [1] 0.01 | [2] 0.061 | [3] -0.098 | [4] 0.057 | [5] 0.036

The list goes on.

KDM5D isoform 3 (UniProt Q9BY66)
inactive: [1] 0.2 | [2] 0.086 | [3] 0.102 | [4] -0.022 | [5] 0.037

JUND (UniProt P17535)
inactive: [1] 0.039 | [2] -0.005 | [3] -0.023 | [4] -0.013 | [5] 0.039

JUNB (UniProt P17275)
inactive: [1] -0.094 | [2] 0.094 | [3] 0.005 | [4] 0.094 | [5] 0.083

KLHL18 (UniProt O94889)
inactive: [1] 0.014 | [2] 0.101 | [3] 0.135 | [4] 0.017 | [5] -0.021

KIF11 (UniProt P52732)
inactive: [1] -0.044 | [2] -0.011 | [3] 0.074 | [4] 0.092 | [5] -0.027

KPNA6 (UniProt O60684)
inactive: [1] -0.017 | [2] -0.046 | [3] 0.093 | [4] 0.105 | [5] 0.07

KIAA0930 isoform 2 (UniProt Q6ICG6)
inactive: [1] -0.093 | [2] -0.043 | [3] 0.112 | [5] 0.286

KIF3A (UniProt Q9Y496)
inactive: [1] 0.027 | [2] 0.039 | [3] 0.054 | [4] 0.049 | [5] 0.002

KIAA0513 (UniProt O60268)
inactive: [1] -0.009 | [2] 0.051 | [3] 0.132 | [4] -0.001 | [5] 0.062

KLHL42 (UniProt Q9P2K6)
inactive: [1] -0.484 | [2] -0.051 | [4] 0 | [5] 0.014

KLHDC4 (UniProt Q8TBB5)
inactive: [1] 0.048 | [2] -0.074 | [3] -0.165 | [4] 0.084 | [5] -0.047

KPNA4 (UniProt O00629)
inactive: [1] -0.017 | [2] 0.004 | [3] 0.035 | [4] 0.004 | [5] 0.009

KIF13A (UniProt Q9H1H9)
inactive: [1] 0.022 | [2] 0.039 | [3] 0.054 | [4] -0.059 | [5] -0.027

KIF13B (UniProt Q9NQT8)
inactive: [1] 0.005 | [2] 0.011 | [4] -0.113 | [5] -0.21

KIAA0319L (UniProt Q8IZA0)
inactive: [1] 0.013 | [2] 0.003 | [3] 0.026 | [4] 0.011 | [5] 0.03

KIAA1522 isoform 2 (UniProt Q9P206)
inactive: [1] 0.073 | [2] -0.117 | [3] -0.147 | [4] 0.018 | [5] 0.118

KLF3 (UniProt P57682)
inactive: [1] 0.08 | [2] 0.211 | [3] -0.065 | [4] 0.086 | [5] -0.013

KPNA1 (UniProt P52294)
inactive: [1] -0.03 | [2] -0.049 | [3] 0.079 | [4] -0.003 | [5] -0.001
